PubChem BioAssay AID1259415 (National Center for Advancing Translational Sciences (NCATS), 2018)
Where “and” joins values, the source holds several entries; their conditions need not be identical. Equal values may be shown once. Hit rate of the full screen: of about 410,000 compounds, about 18,000 (4.4%) were called active. The shares of active, inactive and inconclusive entries below differ from those in the screen. Rule as the data show it: active = activity change below about -60%; inconclusive = no clear call, values can overlap the other calls; inactive = above about -39%.

Experiment: qHTS Assay for inhibitors of the human cytomegalovirus (HCMV)
Conditions: HFF cells, HCMV-luciferase reporter, 72 h; at 57.5 µM; stronger effect = lower value
Text: NCGC Assay Overview: Infection with human cytomegalovirus (HCMV) continues to pose significant threats for pregnant women and immunocompromised hosts. HCMV causes serious morbidity and mortality in transplant recipients, and congenital HCMV is the leading infectious cause of mental retardation and deafness in children. In the 1990s, the annual costs associated with the disease burden of congenital CMV were estimated at around $2 billion. A HCMV vaccine is not available yet and HCMV therapies result in intolerable side effects and emergence of drug resistant viruses. […] Towards this goal we have developed and characterized a luciferase HCMV reporter that was initially used in 96 well plates and then optimized to 1536-well plates for utilization in screening of the MLSMR collection, the NGCG diversity collection and the NCGC Pharmaceutical Collection of approved and investigational drugs.
NCGC Assay Protocol Summary:
This is a cell-based assay for HCMV inhibition in HFFs cells. The screening used 2 compound doses and the HCMV-luciferase at MOI of 1 PFU/cell. Cells were treated and infected with HCMV. At 72 h post infection cell lysates were collected and luciferase activity was determined using the Glomax-Multi + Detection System (Promega, Madison, WI). Data were normalized to the controls for basal activity (buffer only) and known HCMV inhibitors Salinmoycin.
1536-well assay protocol for the assay:
(1) Add 3 ul CMV/HFF cell culture. 1000 cells/well in DMEM nirmal media.
(2) Incubate 16 hr at 37C.
(3) Add 23 nl control compound, 10uM of Salinomycin.
(4) Add 23 nl compounds in DMSO solution.
(5) Add 3 ul CMV suspension. Final 1 puf/ul, Virus stock 2000pfu/ul
(6) Incubate 72 hrs at 37C.
(7) Add 4 ul OneGlo Luc Reagent.
(8) Incubate 5 min at room temperature.
% is scaled to controls: 0 for no effect and ±100 for the full control effect.

Row | Compound | activity change, negative = inhibition
1 | O=C(Nn1c(-c2ccc(Cl)cc2)nc2ccccc2c1=O)c1cccnc1Cl | inactive: -11.2%
2 | Cc1ccc(Cl)cc1N1CCN(C(=O)c2ccc3nc(N4CCC(C)CC4)sc3c2)CC1 | inconclusive: -41.7%
3 | CCCCn1c(NC(=O)c2ccccc2)c(C#N)c2nc3ccccc3nc21 | active: -66.7%
4 | CCOc1ccc(CCNC(=O)c2c(C)oc3ncn(C)c(=O)c23)cc1 | inactive: -13.7%
5 | Cc1cc(C(=O)COc2ccccc2[N+](=O)[O-])c(C)n1-c1cccc(S(=O)(=O)N2CCOCC2)c1 | active: -89.3%
6 | CSc1ccccc1CNc1nc(NCC2CC2)nc2ccsc12 | inconclusive: -57.8%
7 | Cc1cc(-c2ccc(C)c(S(=O)(=O)Nc3cccc(C#N)c3)c2)on1 | inconclusive: -41.8%
8 | COc1ccc(/C=C/C(=O)Nc2ccc(Cl)c(Cl)c2)cc1 | inactive: -2.74%
9 | COc1ccc(NC(=O)c2cc(N3C(=O)C4C5CCC(C5)C4C3=O)ccc2Cl)c(OC)c1 (stereo not given) | inactive: -21.3%
10 | COc1cccc(C(=O)OCC(=O)N2CCc3ccccc32)c1OC | active: -98.5%
11 | Cc1cccc(Nc2nnc(SC(C)C(=O)NC3CC3)s2)c1 (stereo not given) | inactive: 1.87%
12 | COc1ccc2oc(C(=O)NCc3ccccc3CN3CCCC3)c(C)c2c1 | inactive: -26.5%
13 | CNS(=O)(=O)c1cc(-c2nnc(Nc3cc(C)ccc3C)c3ccccc23)ccc1C | active: -77.9%
14 | Cc1ccccc1-c1cc(C(=O)NCc2ccc3c(c2)OCO3)n(CC2CC(c3cccnc3)=NO2)n1 (stereo not given) | inconclusive: -51.5%
15 | CCOC(=O)c1cnc2ccccc2c1Nc1cccc(OC)c1 | inactive: 1.74%
16 | O=C(NCc1ccccc1)c1ccc2c(=O)n(CCCN3CCCC3=O)c(=S)[nH]c2c1 | inactive: -0.312%
17 | C=CCNC(=O)CC(=O)N/N=C/c1ccc(F)cc1 | inactive: -18.6%
18 | NS(=O)(=O)c1ccc(CCNC(=O)c2ccc(Cl)c(S(=O)(=O)N3CCCCCC3)c2)cc1 | active: -69.2%
19 | CCOc1ccccc1NC(=S)N1CCN(c2ccc(O)cc2)CC1 | inconclusive: -55.3%
20 | Cc1nn(C(C)C(=O)Nc2ccccc2Cl)c(=O)c2nn(-c3ccccc3)c(C)c12 (stereo not given) | active: -61.6%
21 | CCN(CC)c1ccc(/C=C2/SC(=O)N(C(C)C)C2=O)o1 | active: -86%
22 | O=c1c2sccc2n(Cc2cc(=O)n3ccccc3n2)c(=O)n1-c1cccc(C(F)(F)F)c1 | inconclusive: -48.3%
23 | Cc1ccc(-n2nc3c(N4CCC(C(=O)NC(C)c5ccccc5)CC4)nnc(C)c3c2C)cc1 (stereo not given) | inconclusive: -54.3%
24 | CCOc1ccc(N(C(=O)c2snc(C(N)=O)c2N)C(C(=O)NC2CCCC2)c2ccncc2)cc1 (stereo not given) | inconclusive: -49.2%
25 | COc1ccc(CCNC(=O)c2cc3c(s2)-c2ccccc2OC3)cc1OC | inconclusive: -44%
26 | COC(C[C@H]1O[C@@H]1[C@@H](O)COCc1ccccc1)OC | inconclusive: -47.9%
27 | O=C1Nc2ccccc2Nc2ncccc21 | inconclusive: -44.7%
28 | CCOCCCn1c(=N)c(C(=O)NCc2cccnc2)cc2c(=O)n3cc(C)ccc3nc21 | active: -66.6%

Three of the compounds above, comma-delimited.
Row,Compound,"activity change, negative = inhibition"
2,Cc1ccc(Cl)cc1N1CCN(C(=O)c2ccc3nc(N4CCC(C)CC4)sc3c2)CC1,inconclusive: -41.7%
4,CCOc1ccc(CCNC(=O)c2c(C)oc3ncn(C)c(=O)c23)cc1,inactive: -13.7%
8,COc1ccc(/C=C/C(=O)Nc2ccc(Cl)c(Cl)c2)cc1,inactive: -2.74%

Carrying on.

Row | Compound | activity change, negative = inhibition
29 | O=C(/C=C/c1ccc(OCc2c(F)cccc2Cl)cc1)N1CCOCC1 | active: -85.8%
30 | O=C(N=C1SC2CS(=O)(=O)CC2N1CCc1ccccc1)C1CC1 (stereo not given) | inconclusive: -45.4%
31 | CCOc1cccc(C(=O)Nc2ccc3[nH]ncc3c2)c1 | inactive: 40.5%
32 | COc1ccccc1NS(=O)(=O)c1ccc(N2CCOCC2)c(NC(=O)c2ccco2)c1 | inactive: -24.6%
33 | CC(C(=O)O)n1cc(Cl)cn1 (stereo not given) | inconclusive: -58.9%
34 | COc1cc2c(cc1OC)C(c1cccc([N+](=O)[O-])c1)=NCC2 | inactive: 54.4%
35 | CN1C(=O)C2(c3ccccc31)N(C)CC(c1ccccn1)C21SC(=S)N(Cc2ccco2)C1=O (stereo not given) | inconclusive: -55%
36 | COc1ccccc1N1CCN(CC(O)COCc2cccs2)CC1 (stereo not given) | inconclusive: -47.7%
37 | CCc1cccc(C)c1NC(=O)C1CCN(c2nn3c(=O)cc(C)nc3s2)CC1 | inactive: -7.19% and inactive: -26.5%
38 | CSc1nnc(-c2cccc(C)c2)n1N | inconclusive: -48.8%
39 | O=C(Oc1ccccc1N1C(=O)C2CCCCC2C1=O)c1ccccc1 (stereo not given) | inconclusive: -48.2%
40 | COc1cccc(NC(=O)N2CCc3nc(NCc4cccc(Oc5ccccc5)c4)ncc3C2)c1 | inconclusive: -48.3%
41 | O=C(O)c1ccc2nc(-c3ccccc3)c(-c3ccccc3)nc2c1 | inactive: 71.7%
42 | COc1ccc(S(=O)(=O)N2CCN(CC(=O)NCCc3cccs3)CC2)cc1 | inconclusive: 0%
43 | O=C(CCN1C(=O)/C(=C/c2ccc3c(c2)OCO3)SC1=S)Nc1ccc(C(=O)O)cc1 | inconclusive: -54.1%
44 | CCC(C)NC(=O)C1CCN(S(=O)(=O)c2cc([N+](=O)[O-])ccc2Cl)CC1 (stereo not given) | inconclusive: -45.8%
45 | COCCNc1oc(/C=C/c2cccc(OC)c2)nc1S(=O)(=O)c1ccccc1 | inactive: 59.6%
46 | O=C(CCNC(=O)c1ccccc1Cl)Nc1cccc(S(=O)(=O)N2CCOCC2)c1 | inactive: -26.7%
47 | C[C@@H]1CN(C(=O)c2ccc(OC3CCN(S(=O)(=O)N(C)C)CC3)cc2)C[C@H](C)O1 | inactive: -15.1%
48 | Cc1ccc(-c2cc(C#N)c(=O)n(Cc3c(Cl)cccc3Cl)c2)cc1 | active: -61.8%
49 | COc1ccc(S(=O)(=O)Nc2cc([N+](=O)[O-])ccc2OC)cc1 | inconclusive: -50%
50 | O=C(Cn1c2ccccc2c(=O)c2ccccc21)N/N=C/c1ccc(N2CCCC2)c([N+](=O)[O-])c1 | inconclusive: -55.4%
51 | Cc1ccccc1-c1cn(-c2ccccc2)c(=S)[nH]1 | inconclusive: -41.8%
52 | O=C(Nc1ccc(OC(F)(F)F)cc1)c1cccc(-n2cnnn2)c1 | inactive: -32.4%
53 | NC(=O)COc1ccc(NS(=O)(=O)Cc2ccccc2)cc1 | inactive: 25.2%
54 | Cc1nnc(SCC(=O)NC2CCCCC2)s1 | inconclusive: -40.2%
55 | O=C(Nc1ccccc1N1CCCCC1)c1ncoc1-c1ccc(F)cc1 | inconclusive: -50%
